# Measured values reported in PMC6925144, “A prospective compound screening contest identified broader inhibitors for Sirtuin 1” (Scientific Reports, 2019).
# Amino acid sequences for entries named in this document (tags omitted). Residues count along the entry.
# UniProt Q96EB6, 2-747 limits assumed: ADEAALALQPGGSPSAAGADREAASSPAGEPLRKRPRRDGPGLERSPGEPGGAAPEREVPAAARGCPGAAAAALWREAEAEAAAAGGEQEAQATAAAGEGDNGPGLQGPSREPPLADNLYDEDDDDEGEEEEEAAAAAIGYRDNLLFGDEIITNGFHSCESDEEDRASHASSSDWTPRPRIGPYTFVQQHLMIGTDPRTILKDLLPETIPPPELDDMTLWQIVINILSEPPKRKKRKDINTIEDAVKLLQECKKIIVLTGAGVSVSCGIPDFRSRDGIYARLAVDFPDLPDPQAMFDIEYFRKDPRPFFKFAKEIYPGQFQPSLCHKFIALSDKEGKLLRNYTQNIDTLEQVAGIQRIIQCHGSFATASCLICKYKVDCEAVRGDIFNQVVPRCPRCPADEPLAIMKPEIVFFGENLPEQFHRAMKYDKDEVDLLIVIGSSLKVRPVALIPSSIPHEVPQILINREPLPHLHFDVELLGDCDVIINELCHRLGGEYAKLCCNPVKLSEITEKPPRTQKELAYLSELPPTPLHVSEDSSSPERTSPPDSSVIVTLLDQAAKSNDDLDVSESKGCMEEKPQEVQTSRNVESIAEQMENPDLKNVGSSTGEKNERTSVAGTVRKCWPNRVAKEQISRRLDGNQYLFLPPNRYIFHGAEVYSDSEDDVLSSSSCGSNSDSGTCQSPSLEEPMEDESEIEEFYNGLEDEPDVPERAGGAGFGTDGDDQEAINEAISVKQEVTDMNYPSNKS
# Whole data set: some 3,200 compounds, median “TSA(without NAD+) / Primary screening (TSA) / delta Tm (K)” near -0.07, cut for the highest 2% near 0.37. The list shows a part of the results.
# Target: NAD-dependent deacetylase Sirtuin 1 (human, UniProt Q96EB6)
# Experiment: primary screen, delta tm
# Set-up: single well (n = 1)
# Settings: 10 µM
# Method in brief: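 Thermal shift of Sirtuin 1 measured without NAD+, compound at 10 µM (n = 1); value is ΔTm, with hits defined as ΔTm > 0.45 K or < −1.5 K. Hits retested at 5, 10, 20 µM (n = 4) and counterscreened on bovine carbonic anhydrase and ABL1 SH2 domain.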
row,SMILES,TSA(without NAD+) / Primary screening (TSA) / delta Tm (K)
1,Cc1cc(C)nc(SCc2ccccc2C(=O)N2CCN(CC(=O)Nc3cccc(F)c3)CC2)n1,-0.11 K
2,CC(=O)Nc1ccc(CC(=O)NCC(c2ccccc2)N(C)C)cc1 (stereo not shown),-0.01 K
3,CC(=O)NC12CC3CC(C1)CC(C(=O)Oc1ccc(N(C)S(=O)(=O)c4cc(C)ccc4C)cc1)(C3)C2,-0.02 K
4,CC(=O)c1cccc(NC(=O)C(C)OC(=O)c2ccc(OCC(=O)N3C(C)CCCC3C)cc2)c1 (stereo not shown),0.12 K
5,CCCCC(=O)OCC(=O)NCCc1ccc(S(N)(=O)=O)cc1,-0.07 K
6,Cc1cc(C=C2C(=O)NC(=S)NC2=O)c(C)n1-c1cccc(F)c1,-0.61 K
7,COc1ccccc1CNC(=O)C(Sc1ccccc1)c1ccccc1 (stereo not shown),-0.15 K
8,NC(=O)C1CCN(c2nc(-c3cccnc3)nc3sc4c(c23)CCCC4)CC1,0.33 K
9,COc1cccc(C=C2C(=O)NC(=S)NC2=O)c1,0.02 K
10,Cc1ccc(-c2csc3ncn(CC(=O)NC(=O)Nc4ccc5c(c4)OCCO5)c(=O)c23)s1,0.26 K
11,CN(c1ccccc1)S(=O)(=O)c1cccc(C(=O)OCc2ccccc2C#N)c1,-0.08 K
12,CC(N)CCCCN (stereo not shown),-0.22 K
13,Cc1ccc(C)c(OCCSc2nnc(-c3cccnc3)n2N)c1,-0.11 K
14,COc1ccc(NC(=O)c2cccc(C(N)=O)c2)cc1OCc1cccnc1,-0.02 K
15,Cn1ccnc1SCc1c(C(=O)O)oc2ccccc12,0.02 K
16,CN(CC1COc2ccccc2O1)C(=O)CSc1nnc(-c2ccccc2Cl)n1C1CCCC1 (stereo not shown),-0.13 K
17,CC(NC(=O)c1ccc2c(c1)CCC2)c1ncc[nH]1 (stereo not shown),-0.22 K
18,Cc1ccc(C=C2C(=O)NC(=S)NC2=O)o1,-0.13 K
19,O=c1scnn1Cc1ncn(-c2ccccc2)n1,-0.13 K
20,Cc1cccn2c(=O)cc(COc3cccc4c3CCCC4O)nc12 (stereo not shown),-0.23 K
21,Cn1c(=O)[nH]c(=O)c2nc(CC(O)c3cc4ccccc4o3)c(O)nc21 (stereo not shown),-0.17 K
22,NC(CC(=O)O)C(=O)O (stereo not shown),-0.04 K
23,CCOC(=O)c1c(NC(=O)C(C)OC(=O)c2cccc(S(=O)(=O)N3CCCC3)c2)sc2c1CCC(C)C2 (stereo not shown),0.18 K

row,SMILES,TSA(without NAD+) / Primary screening (TSA) / delta Tm (K)
1,Cc1ccc(N(C)S(=O)(=O)c2cccc(C(=O)Nc3cc(S(C)(=O)=O)ccc3C)c2)cc1,0.22 K
2,COc1ccccc1CNC(=O)COC(=O)c1ccccc1SCC(=O)NC12CC3CC(CC(C3)C1)C2,-0.23 K
3,Clc1ncnc2c1nnn2-c1ccccc1,-0.03 K
4,O=C(Nc1ccc(NC(=O)c2[nH]c3ccccc3c2Cl)cc1)NC1CC1,0.07 K
5,NC(=O)c1cc(NC(=O)c2ccc(NC(=O)NC3CC3)cc2)ccc1F,-0.15 K
6,O=c1n(CCCc2nc3ccccc3o2)nc2ccccn12,-0.08 K
7,Cc1nc(-n2ccnc2)c2cnn(-c3cccc(Cl)c3)c2n1,-0.18 K
8,O=C(O)CCCc1ccc2c(c1)-c1ccccc1C2,-0.11 K
9,Cc1no[n+]([O-])c1COc1cccc(C=C2C(=O)NC(=S)NC2=O)c1,-0.11 K
10,O=c1cc(CSc2ncc(C(F)(F)F)cc2Cl)nc2ccccn12,-0.23 K
11,CCc1ccc(CNC(=O)N2CCOC(C)(c3cnn(C)c3)C2)cc1 (stereo not shown),-0.15 K
12,O=C(CSc1nc2ccccc2o1)N(Cc1ccccc1)c1nc2c(s1)CCCC2,0.27 K
13,CC(C(=O)Nc1ccc(C(N)=O)cc1)N1CCN(CCOc2ccccc2)CC1 (stereo not shown),-0.23 K
14,CC(Oc1ccc(-c2nc3ccccc3s2)cc1)C(=O)NCc1ccco1 (stereo not shown),-0.12 K
15,Cc1cc(C#N)ccc1S(=O)(=O)N1CC[C@H](N)C1,-0.18 K
16,CCOCc1c(C(=O)Nc2ccc(N3CCN(Cc4ccccc4)CC3)cc2)oc2ccccc12,0.27 K
17,COc1ccc(-c2csc3nc(C)nc(N4CCN(CC(=O)NC5CC5)CC4)c23)cc1OC,-0.11 K
18,Cc1ccccc1SCC(=O)NC1CCCCNC1=O (stereo not shown),-0.12 K
19,NC(=O)c1cc(NCC(=O)Nc2ccccc2Cl)c(F)cc1F,-0.12 K
20,c1ccc(-c2nc(CN3CCN(c4ncnc5sc6c(c45)CCCC6)CC3)cs2)cc1,-0.11 K
21,Cc1ccc(-c2n[nH]cc2CNCc2ccc(CN(C)C)cc2)cc1,-0.12 K
22,Cc1c(O)ccc2c(CN3CCCC3c3ccc[nH]3)cc(=O)oc12 (stereo not shown),-0.05 K
23,CCNCCOCCN,-0.11 K

# 3 compounds out of the list, arranged by formula weight, low to high.
row,SMILES,TSA(without NAD+) / Primary screening (TSA) / delta Tm (K)
3,Clc1ncnc2c1nnn2-c1ccccc1,-0.03 K
20,c1ccc(-c2nc(CN3CCN(c4ncnc5sc6c(c45)CCCC6)CC3)cs2)cc1,-0.11 K
16,CCOCc1c(C(=O)Nc2ccc(N3CCN(Cc4ccccc4)CC3)cc2)oc2ccccc12,0.27 K
